Reference: PMC11954736 (BioImpacts : BI, 2024)

Columns and labels:
Test in all cases: Cell viability assay
MCF7 = type: cell-based, human; settings: MTT, 48 h exposure; LD50: concentration that causes 50% of cell viability
B16 = type: cell-based, murine; settings: MTT, 48 h exposure; LD50: concentration that causes 50% of cell viability
PC12 cells = type: cell-based, rat; settings: MTT, 48 h exposure, studied concentrations

SMILES: COc1cc2c(cc1OC)C(=O)C(CC1CCN(Cc3ccccc3)CC1)C2 (stereo not shown) [Donepezil]
- MCF7 (LD50 µM) (MCF7): 0.06 µM
- B16 (LD50 µM) (B16): 0.36 µM
- PC12 (LD50 µM) (PC12 cells): No growth inhibition*
- PC12 (LD50 µM) (PC12 cells; listed as donepezil): no significant effect
